Experiment: Western blot (anti-6xHis) of xylose isomerase expression in yeast, total/soluble/insoluble extract
Parameters: species or system Saccharomyces cerevisiae
Conditions: His-tagged xylose isomerase in BY4742, FIG. 7

B1: Ruminococcus flavefaciens: native xylose isomerase from Ruminococcus flavefaciens strain 17 (SEQ ID NO: 31) (protein, listed as Ruminococcus flavefaciens)
chain: MEFFSNIGKIQYQGPKSTDPLSFKYYNPEEVINGKTMREHLKFALSWWHTMGGDGTDMFGCGTTDKTWGQSDPAARAKAKVDAAFEIMDKLSIDYYCFHDRDLSPEYGSLKATNDQLDIVTDYIKEKQGDKFKCLWGTAKCFDHPRFMHGAGTSPSADVFAFSAAQIKKALESTVKLGGNGYVFWGGREGYETLLNTNMGLELDNMARLMKMAVEYGRSIGFKGDFYIEPKPKEPTKHQYDFDTATVLGFLRKYGLDKDFKMNIEANHATLAQHTFQHELRVARDNGVFGSIDANQGDVLLGWDTDQFPTNIYDTTMCMYEVIKAGGFTNGGLNFDAKARRGSFTPEDIFYSYIAGMDAFALGFRAALKLIEDGRIDKFVADRYASWNTGIGADIIAGKADFASLEKYALEKGEVTASLSSGRQEMLESIVNNVLFSL
For B1, the “expression in soluble and insoluble fractions (western)” value was “expressed in both the soluble and insoluble fractions” and the “expression in soluble and insoluble fractions (western)” value (listed as wild type R. flavefaciens xylose isomerase) was “expressed in the soluble fraction”.

Source: patent US20110165660A1, “ENGINEERED MICROORGANISMS WITH ENHANCED FERMENTATION ACTIVITY” (VERDEZYNE, INC., priority 2009, published 2011)
